Test results from patent US20220313782A1, “METHODS AND COMPOSITIONS INVOLVING TERT ACTIVATING THERAPIES” (BOARD OF REGENTS, THE UNIVERSITY OF TEXAS SYSTEM, priority 2019, published 2022).
At least one compound was matched to its structure with a doubt left.

Assays:
Tert gene expression = experiment: Tert mRNA levels in cortex and hippocampus of AD mice treated with histone methyltransferase inhibitors; format: in vivo, mouse; settings: cortex and hippocampus of AD mice (5xFAD), FIG. 1I
Description: Tert mRNA levels in the cortex of 3xTg-AD and wildtype control (B6129SF2/J) mice (n=4; 3-month-old). (B) Tert mRNA levels in the hippocampus of 5xFAD and wildtype littermate control mice (n=4; 2˜3-month-old). (C) Tert mRNA levels in primary cortical and hippocampal neurons isolated from 3xTg-AD and control mice at DIV 14 (n=3). (D) Tert mRNA levels in primary cortical and hippocampal neurons isolated from 5xFAD and control mice at DIV 14 (n=3). (E) Telomerase activity in hippocampal neurons isolated from 5xFAD and control mice (n=4; 2˜3-month-old). (F) Representative view of H3K9me3 repressive histone mark occupancy in Tert gene of 5xFAD and control mouse primary neurons at DIV 14. […]
Focusing in particular on the neuronal population, the inventors isolated and cultured primary cortical and hippocampal neurons from E18.5-E19.5 AD mouse brains, and Tert mRNA levels were examined at 14 Days in vitro (DIV), by which time the synaptic network is mature. […] To investigate whether reversible H3K9 methylation is involved in the repression of Tert, the inventors assessed the impact of histone methyltransferase inhibitors chaetocin and BIX-01294, the non-selective cofactor-competitive inhibitor and the selective substrate-competitive inhibitor, respectively, in the AD mouse model (Greiner et al., Nat Chem Biol, 2005; Kubicek et al., Mol Cell, 2007; Yuan et al., ACS Chem Biol, 2012). […]

H3K9 methylation marks = settings: peripheral administration; cited from earlier work

Compound: CN1C(=O)[C@@]23C[C@]4([C@]56C[C@@]78SS[C@@](CO)(C(=O)N7[C@H]5Nc5ccccc56)N(C)C8=O)c5ccccc5N[C@@H]4N2C(=O)[C@]1(CO)SS3 [chaetocin]
- Tert gene expression (Tert mRNA levels) (Tert gene expression): de-repression of Tert gene expression
- H3K9 methylation marks in the central nervous system (H3K9 methylation marks): reduce H3K9 methylation marks
